Measured values as given in PMC7955167 (Structure(London, England:1993), 2021).
Results are given in words; binding and its absence hold for the method and conditions named.

T1: IRAK4 kinase domain (residues 160-460) D329A, unphosphorylated (human) (UniProt Q9NWZ3)
T1 sequence: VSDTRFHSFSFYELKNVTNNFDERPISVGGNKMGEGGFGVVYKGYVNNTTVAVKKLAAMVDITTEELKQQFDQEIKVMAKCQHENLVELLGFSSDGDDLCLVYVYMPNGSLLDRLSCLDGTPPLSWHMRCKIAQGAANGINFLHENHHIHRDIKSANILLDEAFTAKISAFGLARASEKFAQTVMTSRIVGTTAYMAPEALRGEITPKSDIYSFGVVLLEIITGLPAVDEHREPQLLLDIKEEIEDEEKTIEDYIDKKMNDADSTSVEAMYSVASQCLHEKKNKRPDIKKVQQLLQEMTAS


Legend:
[1] = target: IRAK3 pseudokinase domain (residues 145-454) L210E (human) (UniProt Q9Y616); experiment: SEC; analytical gel filtration, Superdex Increase 3.2/300, 20 mM HEPES pH 7.5, 200 mM NaCl, 10% glycerol, 1 mM DTT; 25 μl loaded at 1-5 mg/ml; fractions on SDS-PAGE; monomer to dimer; both purified
[2] = target: T1, IRAK4 kinase domain (residues 160-460) D329A, unphosphorylated (human); experiment: native gel or EMSA; native PAGE co-migration; continuous 10% acrylamide gel, 375 mM Tris/HCl pH 8.8; running buffer 25 mM Tris, 192 mM glycine, pH 8.3; 1 mg/ml per protein, pre-incubated on ice for 1 h; Coomassie stain; both purified

binding [1]	binding [2]	Binder
no binding (tested: 1-5 mg/ml)	–	IRAK3 pseudokinase domain (residues 145-454) L210E (domain or fragment, UniProt Q9Y616 145-454) KGILLKSSISFQNIIEGTRNFHKDFLIGEGEIFEVYRVEIQNLTYAVKLFKQEKKMQCKKHWKRFESELEVLLLFHHPNILELAAYFTETEKFCLIYPYMRNGTLFDRLQCVGDTAPLPWHIRIGILIGISKAIHYLHNVQPCSVICGSISSANILLDDQFQPKLTDFAMAHFRSHLEHQSCTINMTSSSSKHLWYMPEEYIRQGKLSIKTDVYSFGIVIMEVLTGCRVVLDDPKHIQLRDLLRELMEKRGLDSCLSFLDKKVPPCPRNFSAKLFCLAGRCAATRAKLRPSMDEVLNTLESTQASLYFAE
–	no binding (tested: 1 mg/ml per protein)	IRAK2 pseudokinase domain (residues 192-507) (domain or fragment, UniProt O43187 192-507) AGDSLFWSEADVVQATDDFNQNRKISQGTFADVYRGHRHGKPFVFKKLRETACSSPGSIERFFQAELQICLRCCHPNVLPVLGFCAARQFHSFIYPYMANGSLQDRLQGQGGSDPLPWPQRVSICSGLLCAVEYLHGLEIIHSNVKSSNVLLDQNLTPKLAHPMAHLCPVNKRSKYTMMKTHLLRTSAAYLPEDFIRVGQLTKRVDIFSCGIVLAEVLTGIPAMDNNRSPVYLKDLLLSDIPSSTASLCSRKTGVENVMAKEICQKYLEKGAGRLPEDCAEALATAACLCLRRRNTSLQEVCGSVAAVEERLRGRE
